Results as given in article PMC3188548.
No constants are given. Whether binding was seen depends on the method and setting. Binding seen in cells or lysates may run through a third protein. Some results given as binding are weak or reduced against the parent protein; the word gives no strength.

Sequences of proteins named here, by UniProt entry; tags and fusion partners are left off. Residues count along the entry.
UniProt Q59L12, residues 18-1134: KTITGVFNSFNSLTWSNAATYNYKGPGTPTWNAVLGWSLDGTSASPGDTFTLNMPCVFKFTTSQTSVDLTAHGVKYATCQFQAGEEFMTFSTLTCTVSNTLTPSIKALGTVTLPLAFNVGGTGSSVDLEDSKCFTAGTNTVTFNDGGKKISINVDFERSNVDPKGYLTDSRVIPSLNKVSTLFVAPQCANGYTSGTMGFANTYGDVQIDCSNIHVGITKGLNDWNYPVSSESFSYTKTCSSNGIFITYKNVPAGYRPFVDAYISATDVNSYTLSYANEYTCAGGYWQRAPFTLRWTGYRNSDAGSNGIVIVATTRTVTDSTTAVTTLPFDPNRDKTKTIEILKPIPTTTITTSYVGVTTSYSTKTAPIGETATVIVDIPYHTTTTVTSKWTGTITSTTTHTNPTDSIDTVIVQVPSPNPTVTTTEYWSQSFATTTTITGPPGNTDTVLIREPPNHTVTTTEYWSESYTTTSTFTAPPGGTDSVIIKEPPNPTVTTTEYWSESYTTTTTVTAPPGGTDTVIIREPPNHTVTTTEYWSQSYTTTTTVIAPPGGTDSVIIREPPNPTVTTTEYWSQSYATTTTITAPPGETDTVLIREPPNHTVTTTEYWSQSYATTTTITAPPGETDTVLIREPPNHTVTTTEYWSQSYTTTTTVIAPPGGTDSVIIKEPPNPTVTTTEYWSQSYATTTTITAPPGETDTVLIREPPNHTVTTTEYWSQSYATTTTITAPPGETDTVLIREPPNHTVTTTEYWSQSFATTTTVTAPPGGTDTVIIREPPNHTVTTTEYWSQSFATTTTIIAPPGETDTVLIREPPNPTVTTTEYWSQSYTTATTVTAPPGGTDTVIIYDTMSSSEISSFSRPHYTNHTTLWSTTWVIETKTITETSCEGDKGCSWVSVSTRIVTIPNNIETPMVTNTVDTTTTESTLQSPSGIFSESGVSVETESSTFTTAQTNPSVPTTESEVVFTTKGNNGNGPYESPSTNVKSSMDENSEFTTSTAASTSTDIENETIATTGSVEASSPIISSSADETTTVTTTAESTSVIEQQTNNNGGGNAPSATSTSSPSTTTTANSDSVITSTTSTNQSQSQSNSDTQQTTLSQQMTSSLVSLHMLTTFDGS
UniProt P14625, residues 22-803: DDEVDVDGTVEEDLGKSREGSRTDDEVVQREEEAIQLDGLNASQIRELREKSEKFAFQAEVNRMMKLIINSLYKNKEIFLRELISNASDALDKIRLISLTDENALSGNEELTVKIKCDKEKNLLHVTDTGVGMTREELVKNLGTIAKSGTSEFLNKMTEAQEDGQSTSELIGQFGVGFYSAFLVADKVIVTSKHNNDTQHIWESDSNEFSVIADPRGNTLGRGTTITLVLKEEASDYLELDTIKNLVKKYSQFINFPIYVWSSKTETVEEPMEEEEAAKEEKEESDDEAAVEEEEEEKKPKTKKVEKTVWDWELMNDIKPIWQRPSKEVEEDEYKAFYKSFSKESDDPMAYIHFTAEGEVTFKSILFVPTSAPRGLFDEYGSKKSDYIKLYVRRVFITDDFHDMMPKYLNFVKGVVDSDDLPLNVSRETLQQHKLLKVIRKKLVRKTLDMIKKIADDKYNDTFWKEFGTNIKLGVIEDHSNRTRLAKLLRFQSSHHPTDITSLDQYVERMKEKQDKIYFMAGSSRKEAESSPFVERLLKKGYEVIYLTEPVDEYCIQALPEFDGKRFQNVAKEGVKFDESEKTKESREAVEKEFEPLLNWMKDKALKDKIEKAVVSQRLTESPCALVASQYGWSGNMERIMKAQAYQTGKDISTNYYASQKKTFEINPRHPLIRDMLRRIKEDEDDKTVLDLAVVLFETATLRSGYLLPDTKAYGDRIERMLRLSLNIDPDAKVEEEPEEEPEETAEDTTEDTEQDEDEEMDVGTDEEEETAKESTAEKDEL

Columns and labels:
[1] = molecular target: C. albicans Als3 on hyphae (C. albicans (endogenous in hyphae)) (UniProt Q59L12); assay: pull-down; intact organisms as bait: 2×10^8 C. albicans hyphae or 8×10^8 S. cerevisiae yeast incubated on ice for 1 h with 250 µg HBMEC membrane proteins in PBS with calcium and magnesium, 1.5% octyl-glucopyranoside and protease inhibitors; rinsed, bound proteins eluted with 6M urea, immunoblot with anti-gp96 antibody
[2] = molecular target: C. albicans Als3 expressed in S. cerevisiae (C. albicans) (UniProt Q59L12); assay: as above

## gp96 heat shock protein (from UniProt P14625 22-803) (receptor)
[1]
  binding: binds
[2]
  binding: binds
